Source: PMC9233695, “Structural mechanism of protein recognition by the FW domain of autophagy receptor Nbr1” (Nature Communications, 2022)

Target: T1, SpAtg8(1−115) fused to Pil1-mCherry (S. pombe) (UniProt O94272)
T1 sequence: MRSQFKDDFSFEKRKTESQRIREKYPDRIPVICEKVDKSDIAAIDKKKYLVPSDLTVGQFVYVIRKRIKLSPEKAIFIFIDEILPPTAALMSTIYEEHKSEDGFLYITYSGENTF
Test: Pil1 co-tethering assay; bait fused to Pil1-mCherry, prey fused to mECitrine, co-expressed in S. pombe; co-localisation on Pil1 filamentary structures by fluorescence microscopy; EMM medium, 30 °C

- binding: binds
Substance: mECitrine-tagged CtNbr1 (Chaetomium thermophilum)

These are yes or no findings as the source states them, for the method shown. Binding calls can cover weak binding; strength is not graded here. Where a sequence is shown, tags or fusion partners need not be part of it.
